Results: paper PMC3556083

B1: SIRT2 (protein, UniProt Q5RJQ4 1-350)
chain: MDFLRNLFTQTLGLGSQKERLLDELTLEGVTRYMQSERCRRVICLVGAGISTSAGIPDFRSPSTGLYANLEKYHLPYPEAIFEISYFKKHPEPFFALAKELYPGQFKPTICHYFIRLLKEKGLLLRCYTQNIDTLERVAGLEPQDLVEAHGTFYTSHCVNTSCGKEYTMSWMKEKIFSEATPKCEKCQNVVKPDIVFFGENLPPRFFSCMQSDFSKVDLLIIMGTSLQVQPFASLISKAPLATPRLLINKEKTGQTDPFLGMMMGLGGGMDFDSKKAYRDVAWLGDCDQGCLALADLLGWKELEDLVRREHANIDAQSGSQASNPSATVSPRKSPPPAKEAARTKEKEEH
B2: RAB3A (protein, UniProt P63012 1-220)
chain: MASATDSRYGQKESSDQNFDYMFKILIIGNSSVGKTSFLFRYADDSFTPAFVSTVGIDFKVKTIYRNDKRIKLQIWDTAGQERYRTITTAYYRGAMGFILMYDITNEESFNAVQDWSTQIKTYSWDNAQVLLVGNKCDMEDERVVSSERGRQLADHLGFEFFEASAKDNINVKQTFERLVDVICEKMSESLDTADPAVTGAKQGPQLTDQQAPPHQDCAC
B3: MYLK3 (protein, UniProt E9PT87 1-786)
chain: MSGVSEEDPEGLGPQGLPALGGACLVTVDKKLNVLTEKVDRLLHFQEDVTEKLQCVCQGMDHLEQGLHRLEASQELGLAGPGSTSPAAAQAAWPEVLELVRAVRQEGAQHGARLEALFKMVVAVDRAITLVGSTIQNSKVDDFILQGTVPWRKGSLADGPEENKEQAEVAGVKPKHVLNTGSVQAATSRALWEESQKQDTPVGTVEGLPLIIDTSLKGADLTQAGASLRQGVEALDPGQEPPPTEAESRLPALASEDTGTTLELSVAIDRISEVLTSLRMSQSAGEGTSSSKPDCSEPGPQPLGPLTTDSDIHSDEGLPRISVRMREMTTPEELFETQGGSPIGSAEAPGPGTVLEDQIPKGARPFPPLPKRSCNNGGASAEEATGPGAEPIRGPSLVTRDWRDEPVGTTDLQQGRDPGAVSPEPGKDHAAQGPGRTEAGRRVSSAAEAAIVVLDDSAAPPAPFEHRVVSIKDTLISTSYTVSQHEVLGGGRFGQVHRCTERSTGLALAAKIIKVKNIKDREDVKNEINIMNQLSHVNLIQLYDAFESKNSFTLIMEYVDGGELFDRITDEKYHLTELDVVLFTRQICEGVHYLHQHYILHLDLKPENILCVSQTGHQIKIIDFGLARRYKPREKLKVNFGTPEFLAPEVVNYEFVSFPTDMWSVGVITYMLLSGLSPFLGETDAETMNFIVNCSWDFDADTFKGLSEEAKDFVSRLLVKEKSCRMSATQCLKHEWLNHLIAKASGSNVRLRSQLLLQKYMAQRKWKKHFHVVTAVNRLRKFPTCP
B4: BASP1 (protein, UniProt Q05175 1-220)
chain: MGSKLSKKKKGYNVNDEKAKDKDKKAEGAGTEEEGTQKESEPQAAADATEVKESAEEKPKDAADGEAKAEEKEADKAAAKEEAPKAEPEKSEGAAEEQPEPAPAPEQEAAAPGPAAGGEAPKAGEASAESTGAADGAPQEEGEAKKTEAPAAGPEAKSDAAPAASDSKPSTEPAPSSKETPAASEAPSSAAKAPAPAAPAAEPQAEAPVASSEQSVAVKE
B5: CRIP2 (protein, UniProt P36201 1-208)
chain: MASKCPKCDKTVYFAEKVSSLGKDWHKFCLKCERCNKTLTPGGHAEHDGKPFCHKPCYATLFGPKGVNIGGAGSYIYEKPPTEAPQVTGPIEVPVVRTEERKTSGPPKGPSKASSVTTFTGEPNMCPRCNKRVYFAEKVTSLGKDWHRPCLRCERCSKTLTPGGHAEHDGQPYCHKPCYGILFGPKGVNTGAVGSYIYDKDPEGTVQP
B6: ARL1 (protein, UniProt P61212 1-181)
chain: MGGFFSSIFSSLFGTREMRILILGLDGAGKTTILYRLQVGEVVTTIPTIGFNVETVTYKNLKFQVWDLGGQTSIRPYWRCYYSNTDAVIYVVDSCDRDRIGISKSELVAMLEEEELRKAILVVFANKQDMEQAMTPSEMANALGLPALKDRKWQIFKTSATKGTGLDEAMEWLVETLKSRQ
B7: FGB (protein, UniProt P14480 19-479)
chain: ATTDSDKVDLSIARGHRPVDRRKEEPPSLRPAPPPISGGGYRARPAKVDAGQKKVERKPPDAGGCVHGDGDMGVLCPTGCELRQTLLNHERPIKNSIAELNSNINSVSETSSVTFQYLTLLKDMWKKKQAQVKDNENVINEYSSILEDQKLYIDETVNDNIPLNLRVLRSILEDLRSKIQKLESDISAQTEYCHTPCTVNCNIPVVSGKECEEIIRKGGETSEMYLIQPDTSSKPYRVYCDMKTENGGWTVIQNRQDGSVDFGRKWDPYKKGFGNIATNEDTKKYCGLPGEYWLGNDKISQLTRIGPTELLIEMEDWKGDKVKAHYGGFTVQTEANKYQVSVNKYKGTAGNALMEGASQLVGENRTMTIHNGMFFSTYDRDNDGWVTTDPRKQCSKEDGGGWWYNRCHAANPNGRYYWGGLYSWDMSKHGTDDGVVWMNWKGSWYSMRRMSMKIRPVFPQQ
B8: RAB12 (protein, UniProt P35284 1-291)
chain: MLLPLLRRSCFPSSTPGGGGSGGGAERVEGARGPGARGRRPEREPYACMDPSAALHRRPAGGGLGAVSPALSGGQARRRKQPPRPADFKLQVIIIGSRGVGKTSLMERFTDDTFCEACKSTVGVDFKIKTVELRGKKIRLQIWDTAGQERFNSITSAYYRSAKGIILVYDITKKETFDDLPKWMKMIDKYASEDAELLLVGNKLDCETDREISRQQGEKFAQQITGMRFCEASAKDNFNVDEIFLKLVDDILKKMPLDVLRSELSNSILSLQPEPEIPPELPPPRPHVRCC
B9: CAPNS1 (protein, UniProt Q64537 1-270)
chain: MFLVNSFLKGGGGGGGGGGLGGGLGNVLGGLISGAAGGGGGGGGGGGMGLGGGGGGGGTAMRILGGVISAISEAAAQYNPEPPPPRSHYSNIEANESEEERQFRKLFVQLAGDDMEVSATELMNILNKVVTRHPDLKTDGFGIDTCRSMVAVMDSDTTGKLGFEEFKYLWNNIKKWQGIYKRFDTDRSGTIGSNELPGAFEAAGFHLNQHIYSMIIRRYSDETGNMDFDNFISCLVRLDAMFRAFRSLDKNGTGQIQVNIQEWLQLTMYS

target: β2-adrenergic receptor (UniProt P07550); assay: affinity purification with mass spectrometry; purified Flag-β2AR in rHDL immobilised on M1 anti-Flag resin, occupied by 50 µM BI-167107 (full agonist) or 50 µM carazolol (inverse agonist); adult rat heart cytosol (10 mg/ml, 4 mM CaCl2) overnight at 4°C; eluted with FLAG peptide and EDTA; gel slices, LC-MS; proteins of the M1 resin, empty rHDL and Ni-NTA controls subtracted; hits of either or both samples; only the target purified

binding, binds:
B1
B2
B3
B4
B5
B6
B7
B8
B9

No constants are given. Whether binding was seen depends on the method and setting. Binding seen in cells or lysates may run through a third protein. These calls come from enrichment with a bait or labelling near it, and not all partners need be listed.
